Measured values: paper PMC5848848
Results are given in words; binding and its absence hold for the method and conditions named. In cells and extracts the contact can be indirect. These calls come from enrichment with a bait or labelling near it, and not all partners need be listed. Blank lines part the entries; values can stand above or below the molecule they belong to.

Sequences of proteins named here, by UniProt entry; tags and fusion partners are left off.
UniProt O94776: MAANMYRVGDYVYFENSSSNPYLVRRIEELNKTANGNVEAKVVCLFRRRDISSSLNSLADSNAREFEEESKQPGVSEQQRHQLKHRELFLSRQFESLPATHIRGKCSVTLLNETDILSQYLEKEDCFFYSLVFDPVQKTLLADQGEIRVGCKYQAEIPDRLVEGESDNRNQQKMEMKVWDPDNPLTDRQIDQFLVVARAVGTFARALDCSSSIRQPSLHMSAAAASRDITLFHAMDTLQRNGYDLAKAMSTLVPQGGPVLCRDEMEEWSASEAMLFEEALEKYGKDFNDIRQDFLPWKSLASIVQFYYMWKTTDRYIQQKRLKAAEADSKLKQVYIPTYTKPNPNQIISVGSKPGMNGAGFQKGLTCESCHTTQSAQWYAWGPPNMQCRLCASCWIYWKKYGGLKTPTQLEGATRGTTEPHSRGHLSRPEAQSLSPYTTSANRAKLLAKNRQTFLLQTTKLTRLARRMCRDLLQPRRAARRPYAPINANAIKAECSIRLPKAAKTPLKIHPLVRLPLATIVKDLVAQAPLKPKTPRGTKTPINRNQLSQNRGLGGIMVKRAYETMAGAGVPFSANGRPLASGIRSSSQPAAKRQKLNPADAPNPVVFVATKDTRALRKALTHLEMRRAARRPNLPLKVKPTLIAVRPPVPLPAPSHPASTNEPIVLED
UniProt Q92769: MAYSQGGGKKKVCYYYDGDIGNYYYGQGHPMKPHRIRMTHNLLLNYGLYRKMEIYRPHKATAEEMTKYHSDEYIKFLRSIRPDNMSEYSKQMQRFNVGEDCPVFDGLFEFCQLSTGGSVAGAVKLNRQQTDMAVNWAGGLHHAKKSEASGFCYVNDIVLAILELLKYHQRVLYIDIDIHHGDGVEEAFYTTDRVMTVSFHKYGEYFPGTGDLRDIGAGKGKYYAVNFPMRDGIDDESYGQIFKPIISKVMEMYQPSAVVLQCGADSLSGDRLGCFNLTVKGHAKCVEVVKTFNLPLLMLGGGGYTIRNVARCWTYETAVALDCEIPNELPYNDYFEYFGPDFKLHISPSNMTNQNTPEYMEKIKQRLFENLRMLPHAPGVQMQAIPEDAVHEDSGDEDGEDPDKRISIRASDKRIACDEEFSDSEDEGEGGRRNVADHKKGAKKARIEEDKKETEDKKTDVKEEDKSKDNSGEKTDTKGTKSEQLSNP
UniProt Q13547: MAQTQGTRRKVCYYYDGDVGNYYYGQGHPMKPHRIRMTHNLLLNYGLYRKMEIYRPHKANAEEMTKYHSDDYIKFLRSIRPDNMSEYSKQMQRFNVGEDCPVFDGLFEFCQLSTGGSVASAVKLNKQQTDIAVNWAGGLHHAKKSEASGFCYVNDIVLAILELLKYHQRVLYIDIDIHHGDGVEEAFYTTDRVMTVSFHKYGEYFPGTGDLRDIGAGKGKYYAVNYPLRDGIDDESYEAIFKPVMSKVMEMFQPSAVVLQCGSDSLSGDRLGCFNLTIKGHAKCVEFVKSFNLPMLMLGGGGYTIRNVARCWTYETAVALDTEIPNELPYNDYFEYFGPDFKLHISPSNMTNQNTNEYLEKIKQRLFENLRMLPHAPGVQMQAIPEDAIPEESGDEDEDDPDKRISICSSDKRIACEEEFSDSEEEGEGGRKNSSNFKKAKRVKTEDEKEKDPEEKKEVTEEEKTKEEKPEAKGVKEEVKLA
UniProt Q14839: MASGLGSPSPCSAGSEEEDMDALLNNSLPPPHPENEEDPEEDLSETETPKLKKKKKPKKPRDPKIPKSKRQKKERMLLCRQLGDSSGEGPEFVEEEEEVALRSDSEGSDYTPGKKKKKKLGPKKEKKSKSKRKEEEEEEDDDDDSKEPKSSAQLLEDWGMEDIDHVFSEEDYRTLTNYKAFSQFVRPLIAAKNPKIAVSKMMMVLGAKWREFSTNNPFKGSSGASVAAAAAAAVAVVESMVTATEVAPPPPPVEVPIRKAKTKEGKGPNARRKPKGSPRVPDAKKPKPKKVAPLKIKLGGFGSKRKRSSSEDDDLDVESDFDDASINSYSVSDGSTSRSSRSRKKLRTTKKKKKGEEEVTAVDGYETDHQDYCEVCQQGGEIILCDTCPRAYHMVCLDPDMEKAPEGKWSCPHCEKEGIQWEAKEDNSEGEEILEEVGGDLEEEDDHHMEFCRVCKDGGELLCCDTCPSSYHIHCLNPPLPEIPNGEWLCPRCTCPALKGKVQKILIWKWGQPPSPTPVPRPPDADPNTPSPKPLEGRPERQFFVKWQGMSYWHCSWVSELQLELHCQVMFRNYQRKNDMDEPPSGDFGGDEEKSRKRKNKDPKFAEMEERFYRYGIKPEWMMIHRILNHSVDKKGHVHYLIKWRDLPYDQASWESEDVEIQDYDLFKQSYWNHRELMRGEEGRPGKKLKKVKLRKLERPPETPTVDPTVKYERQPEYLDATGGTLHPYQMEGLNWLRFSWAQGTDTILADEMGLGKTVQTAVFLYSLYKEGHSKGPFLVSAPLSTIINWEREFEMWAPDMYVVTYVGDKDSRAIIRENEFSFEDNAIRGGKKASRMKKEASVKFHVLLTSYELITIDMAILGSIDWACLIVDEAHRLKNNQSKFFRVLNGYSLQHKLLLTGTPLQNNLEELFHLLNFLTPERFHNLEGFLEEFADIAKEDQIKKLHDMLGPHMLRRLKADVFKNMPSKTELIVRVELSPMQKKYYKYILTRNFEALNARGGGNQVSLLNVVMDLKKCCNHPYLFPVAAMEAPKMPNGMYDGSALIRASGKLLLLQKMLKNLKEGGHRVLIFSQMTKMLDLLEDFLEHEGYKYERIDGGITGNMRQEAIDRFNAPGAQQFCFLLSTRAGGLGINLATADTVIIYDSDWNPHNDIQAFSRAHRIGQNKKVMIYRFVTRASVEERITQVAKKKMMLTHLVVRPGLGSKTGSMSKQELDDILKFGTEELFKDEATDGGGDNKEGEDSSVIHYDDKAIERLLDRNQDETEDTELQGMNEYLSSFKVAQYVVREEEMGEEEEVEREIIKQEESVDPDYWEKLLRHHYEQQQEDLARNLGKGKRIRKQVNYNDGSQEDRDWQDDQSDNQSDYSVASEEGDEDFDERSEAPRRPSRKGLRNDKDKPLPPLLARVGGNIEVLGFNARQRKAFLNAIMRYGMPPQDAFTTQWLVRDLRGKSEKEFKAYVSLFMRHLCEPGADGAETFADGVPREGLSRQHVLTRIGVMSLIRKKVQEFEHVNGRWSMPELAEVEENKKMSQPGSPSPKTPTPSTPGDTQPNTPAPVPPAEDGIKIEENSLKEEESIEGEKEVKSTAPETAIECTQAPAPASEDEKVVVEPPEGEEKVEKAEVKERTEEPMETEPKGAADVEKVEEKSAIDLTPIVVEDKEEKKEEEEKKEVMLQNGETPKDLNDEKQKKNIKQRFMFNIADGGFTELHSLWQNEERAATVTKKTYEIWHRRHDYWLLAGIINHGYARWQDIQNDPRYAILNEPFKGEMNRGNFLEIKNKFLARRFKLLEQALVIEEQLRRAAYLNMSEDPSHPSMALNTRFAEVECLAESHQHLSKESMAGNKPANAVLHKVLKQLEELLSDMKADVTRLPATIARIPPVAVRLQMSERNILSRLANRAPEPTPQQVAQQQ
UniProt Q8WXI9: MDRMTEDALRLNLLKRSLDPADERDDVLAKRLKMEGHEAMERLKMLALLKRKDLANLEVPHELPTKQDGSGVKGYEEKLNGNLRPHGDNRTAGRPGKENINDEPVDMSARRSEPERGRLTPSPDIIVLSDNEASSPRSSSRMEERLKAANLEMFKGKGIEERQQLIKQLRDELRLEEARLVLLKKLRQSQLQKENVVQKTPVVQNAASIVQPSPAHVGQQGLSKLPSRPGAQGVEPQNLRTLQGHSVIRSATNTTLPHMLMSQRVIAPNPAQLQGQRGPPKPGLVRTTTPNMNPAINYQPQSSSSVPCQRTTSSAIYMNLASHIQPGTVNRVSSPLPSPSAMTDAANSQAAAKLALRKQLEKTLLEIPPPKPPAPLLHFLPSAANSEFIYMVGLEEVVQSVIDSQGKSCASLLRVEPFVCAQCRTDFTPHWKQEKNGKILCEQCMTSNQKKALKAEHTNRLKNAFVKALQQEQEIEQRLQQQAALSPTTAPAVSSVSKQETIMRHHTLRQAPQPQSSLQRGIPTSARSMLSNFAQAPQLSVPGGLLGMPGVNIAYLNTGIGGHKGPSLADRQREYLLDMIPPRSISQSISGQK
UniProt Q9UBB5: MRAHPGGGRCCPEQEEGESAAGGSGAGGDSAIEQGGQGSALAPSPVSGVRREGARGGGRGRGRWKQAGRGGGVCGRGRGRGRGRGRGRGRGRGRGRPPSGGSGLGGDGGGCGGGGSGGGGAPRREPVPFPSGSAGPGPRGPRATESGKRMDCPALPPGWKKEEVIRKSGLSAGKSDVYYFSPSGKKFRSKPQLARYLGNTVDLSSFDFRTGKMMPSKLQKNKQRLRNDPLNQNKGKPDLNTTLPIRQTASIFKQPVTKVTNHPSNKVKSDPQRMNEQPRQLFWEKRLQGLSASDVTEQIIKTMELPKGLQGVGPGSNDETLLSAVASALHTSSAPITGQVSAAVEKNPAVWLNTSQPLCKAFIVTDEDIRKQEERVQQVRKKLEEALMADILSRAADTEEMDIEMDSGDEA
UniProt Q12873: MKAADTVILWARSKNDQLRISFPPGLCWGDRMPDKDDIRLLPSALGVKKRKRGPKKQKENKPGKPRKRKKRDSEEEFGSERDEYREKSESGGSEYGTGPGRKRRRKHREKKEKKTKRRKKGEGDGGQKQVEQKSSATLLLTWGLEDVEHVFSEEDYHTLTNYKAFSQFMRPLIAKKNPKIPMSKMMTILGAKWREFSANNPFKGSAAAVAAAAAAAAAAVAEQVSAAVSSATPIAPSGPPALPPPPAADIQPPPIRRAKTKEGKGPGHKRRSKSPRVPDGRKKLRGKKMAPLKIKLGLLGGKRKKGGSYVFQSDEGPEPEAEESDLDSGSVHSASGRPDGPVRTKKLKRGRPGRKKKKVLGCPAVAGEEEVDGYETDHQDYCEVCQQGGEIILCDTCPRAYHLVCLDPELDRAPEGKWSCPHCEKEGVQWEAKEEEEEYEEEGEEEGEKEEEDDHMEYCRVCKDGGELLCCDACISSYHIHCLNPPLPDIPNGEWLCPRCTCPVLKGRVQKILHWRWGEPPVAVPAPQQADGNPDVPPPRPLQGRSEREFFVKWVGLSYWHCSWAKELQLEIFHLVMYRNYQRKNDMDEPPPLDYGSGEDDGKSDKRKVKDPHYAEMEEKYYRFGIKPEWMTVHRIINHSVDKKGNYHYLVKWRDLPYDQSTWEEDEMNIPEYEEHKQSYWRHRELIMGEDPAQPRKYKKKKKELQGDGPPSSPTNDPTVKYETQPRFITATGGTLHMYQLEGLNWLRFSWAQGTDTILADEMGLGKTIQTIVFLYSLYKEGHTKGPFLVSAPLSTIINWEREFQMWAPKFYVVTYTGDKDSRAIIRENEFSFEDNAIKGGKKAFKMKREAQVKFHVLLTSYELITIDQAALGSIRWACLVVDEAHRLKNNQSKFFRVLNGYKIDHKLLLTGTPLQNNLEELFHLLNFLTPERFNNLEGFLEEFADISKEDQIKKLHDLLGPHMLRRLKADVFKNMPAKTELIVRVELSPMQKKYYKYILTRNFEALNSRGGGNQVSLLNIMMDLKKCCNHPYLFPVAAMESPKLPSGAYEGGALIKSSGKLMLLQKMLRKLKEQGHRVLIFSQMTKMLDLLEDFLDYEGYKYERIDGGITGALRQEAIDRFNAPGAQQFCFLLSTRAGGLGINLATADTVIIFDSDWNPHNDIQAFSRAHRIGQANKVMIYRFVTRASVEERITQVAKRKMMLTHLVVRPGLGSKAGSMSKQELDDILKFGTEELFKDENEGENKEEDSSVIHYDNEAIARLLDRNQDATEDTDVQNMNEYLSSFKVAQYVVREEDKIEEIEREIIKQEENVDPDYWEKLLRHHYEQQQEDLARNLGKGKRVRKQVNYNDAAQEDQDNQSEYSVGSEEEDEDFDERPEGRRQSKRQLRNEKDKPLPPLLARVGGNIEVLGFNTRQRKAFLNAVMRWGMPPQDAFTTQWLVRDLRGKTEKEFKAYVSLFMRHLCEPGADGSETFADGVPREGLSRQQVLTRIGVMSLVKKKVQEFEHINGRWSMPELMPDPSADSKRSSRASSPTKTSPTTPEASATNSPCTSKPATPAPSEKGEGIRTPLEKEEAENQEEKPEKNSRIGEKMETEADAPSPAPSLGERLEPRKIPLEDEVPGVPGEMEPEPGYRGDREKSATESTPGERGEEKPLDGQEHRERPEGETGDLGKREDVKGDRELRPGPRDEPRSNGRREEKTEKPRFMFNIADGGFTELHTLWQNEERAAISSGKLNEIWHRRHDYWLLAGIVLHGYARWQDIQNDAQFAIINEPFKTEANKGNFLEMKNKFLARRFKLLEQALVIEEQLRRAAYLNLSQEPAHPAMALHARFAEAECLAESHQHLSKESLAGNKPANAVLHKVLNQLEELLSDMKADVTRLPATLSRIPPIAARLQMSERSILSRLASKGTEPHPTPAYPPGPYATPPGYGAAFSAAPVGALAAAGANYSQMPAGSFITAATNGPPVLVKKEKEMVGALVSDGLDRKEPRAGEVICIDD

Experiments:
[1] = biological target: MTA2 (human) (human (endogenous in HeLa)) (UniProt O94776); assay: affinity purification with mass spectrometry; anti-MTA2 IP from pooled fractions 6-8 of the preparative sucrose gradient of HeLa nuclear extract; protein A Dynabeads, washed with PBS pH 7.4, 0.02% Tween 20
[2] = biological target: MTA2 (human) (human (endogenous in HeLa)) (UniProt O94776); assay: affinity purification with mass spectrometry; anti-MTA2 IP from pooled fractions 6-8 (high-molecular-weight fractions) of the preparative sucrose gradient of HeLa cytosolic extract; protein A Dynabeads, washed with PBS pH 7.4, 0.02% Tween 20
[3] = biological target: MTA2 (Xenopus laevis) (Xenopus laevis (endogenous in eggs and embryos)); assay: affinity purification with mass spectrometry; rabbit anti-MTA2 (ab8106) and protein A Dynabeads; fractionated activated Xenopus laevis egg extract; beads washed with PBS pH 7.4, 0.02% Tween 20; proteins found only in the MTA2 IP and not in the control IP
[4] = biological target: MTA2 (Xenopus laevis) (Xenopus laevis (endogenous in eggs and embryos)); assay: affinity purification with mass spectrometry; anti-MTA2 IP from partially fractionated post-MBT (stage 18) Xenopus laevis embryo extract; protein A Dynabeads, washed with PBS pH 7.4, 0.02% Tween 20
[5] = biological target: MTA2 (Xenopus laevis) (Xenopus laevis (endogenous in eggs and embryos)); assay: affinity purification with mass spectrometry; anti-MTA2 IP from partially fractionated pre-MBT (stage 6) Xenopus laevis embryo extract; protein A Dynabeads, washed with PBS pH 7.4, 0.02% Tween 20

binding [1]: binds
binding [2]: binds
Molecule: HDAC2 (human) (from UniProt Q92769 1-488)

binding [1]: binds
binding [2]: binds
Molecule: HDAC1 (human) (from UniProt Q13547 1-482)

binding [1]: binds
B1: DOC1/CDK2AP1 (deleted in oral cancer 1/Cdk2-associated protein 1) (human) (protein, UniProt O14519 1-115)
chain: MSYKPNLAAHMPAAALNAAGSVHSPSTSMATSSQYRQLLSDYGPPSLGYTQGTGNSQVPQSKYAELLAIIEELGKEIRPTYAGSKSAMERLKRGIIHARGLVRECLAETERNARS

binding [3]: binds
binding [4]: binds
binding [5]: binds
B2: MBD3 (Xenopus laevis) (protein, UniProt Q9PUM9 1-282)
chain: MEKKRWECSALQGWKKEEVTRRSGLSAGKSDVYYYSPSGKKFRSKPQLARYLGNSMDLSTFDFRTGKMLMSKINKNRQRMRYDGLNQSKGKPDLNTALPVRQTASIFKQPVTKVTNHPTNKVKSDPQKAVDQPRQLFWEKKLSGLNAFDIAEELVKTMELPKGLQGVGPGCTDETLLSAIASALHTSTMPITGQLSAAVEKNPGVWLNTSQPLCKAFMVTDEDIRKQEELVQQVRKKLEEALMADMLAHVEEISKDGGAPLDKDIDDEEEDQDPREQEADDV

Further lines, the molecule ahead of its results:

Molecule: CHD4 (human) (from UniProt Q14839 1-1912)
binding [1]: binds

Molecule: GATAD2B (human) (from UniProt Q8WXI9 1-593)
binding [1]: binds

Molecule: MBD2 (human) (from UniProt Q9UBB5 1-411)
binding [1]: binds

Molecule: CHD3 (human) (from UniProt Q12873 1-2000)
binding [1]: binds
